Data reported in PubChem BioAssay AID1347423 (Functional Genomics Laboratory (NCATS/FGL), 2020).
Screen size: about 52,000 sequences; about 210 (0.4%) were called active.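 The calls were made as follows: active = gene whose silencing raises cell survival under the drug, median off-target-corrected z-score across its silencing RNAs 2 or more; inactive = the rest.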 The list shows a part of the results.

Experiment: Resistance to Poly (ADP-Ribose) Polymerase inhibitor: Gene Identification via Genome-wide siRNA Screen
Settings: mouse BRCA2 R2336H ES cells, olaparib, CellTiter-Glo viability; hits give high values
Method in brief: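 Genome-wide siRNA screen (3 siRNAs/gene, 20 nM) in mouse ES cells carrying hypomorphic BRCA2 R2336H; olaparib 500 nM added 48 h post-transfection, CellTiter-Glo viability 72 h later. Normalized to plate-median negative control; MAD z-scores, gene median, seed-adjusted.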
For GGAAAACCAGGUGAACCUCTT against Gch1, the z-score was inactive: 0.307.
For GUUAACCAAAACAAAGGCUTT against Hist1h2ab, the z-score was inactive: 1.09.
With GGACAUCCGACACUUUAACTT against Abcb9 the z-score was inactive: 0.245.
For GGACUUUGAGGAGAAGAAGTT against Maml1, the z-score was inactive: -0.508.
In the case of “GGAGUGUUGCCAGUUCCUATT against 4432405B04Rik”, the z-score is reported as inactive: 0.443.
For “CGAGCUUAUGCUGAAACCATT against 3830417A13Rik”, the z-score was inactive: -1.06.
For GGACUGAGAAUCUUCUGUATT against Kctd4, the z-score was inactive: -0.224.
With CCAAAUAUUGCCUAGCUGCTT against Qtrtd1 the z-score was inactive: -0.0841.
With GGAAAACCGGAACAACCAGTT against Kpna2 the z-score was inactive: -0.469.
In the case of CCCGUAGGUAAUACAAAUATT against Foxd4, the z-score is reported as inactive: 0.353.
For GCUUGCAUUCAUUUCAUACTT against Ezh2, the z-score was inactive: -0.803.
For CGCCUUAUGACAUCCGAUUTT against Dntt, the z-score was inactive: 0.116.
In the case of GGGAGCAACAGUGGUUGGATT against Solt, the z-score is reported as inactive: -2.1.
For CCGACGUAGAGAAAAGGGATT against Chchd1, the z-score was inactive: 0.424.
With “CCGAUGCCAUCAAGUUUGATT against 1110033J19Rik” the z-score was inactive: -1.46.
With “GGAAAUGCGCCAUGAGUUGTT against 6330407J23Rik” the z-score was inactive: 2.11.
In the case of “GAAGAGACCUUCACAAAGUTT against 2810036L13Rik”, the z-score is reported as inactive: 0.252.
In the case of CCUUUUCUAUAGAUUCUCGTT against V1rd13, the z-score is reported as inactive: 0.22.
For “GGAGAUUCAGAAGAUCCUCTT against 0610042E07Rik”, the z-score was inactive: 0.194.
In the case of GGCCAGCUUACCAUUGAUCTT against Acadvl, the z-score is reported as inactive: -0.918.
With “GGAAAUCGAAACUGUCUGCTT against 9530020D24Rik” the z-score was inactive: 0.787.
With GCUGUGCAAGCAAUAUCUATT against Hnrpm the z-score was inactive: -0.164.
For “GCAUGAACACUCUGACUGCTT against 2310003H01Rik”, the z-score was inactive: -1.3.
In the case of GCUUGCACUGGACUCAACUTT against Pax4, the z-score is reported as inactive: -0.42.
For GCAUCCUGAGUCCGUAUCCTT against Rbm11, the z-score was inactive: 0.109.
In the case of “GCAGCUCCUUUAUACCCACTT against 1810057P16Rik”, the z-score is reported as inactive: -1.28.
In the case of GCUCUGUGGCCGAAUUCAUTT against Olfr518, the z-score is reported as inactive: 2.67.
With GGAGUUUAUGAAUUUGUUCTT against Etfdh the z-score was inactive: -0.595.
With GGAAAAAAGACAUAAGUCATT against V2r14 the z-score was inactive: 0.149.
For GUGUGAAGUGCAGACUGAGTT against AI481500, the z-score was inactive: -3.2.
With CCUCAAAUCAGCUAACUCATT against Mocs1 the z-score was inactive: -0.138.
With CCUUCUUAUUGCUUAACCCTT against Scd3 the z-score was inactive: -0.0307.
In the case of GCACUGGUCACUAAUUAUATT against Fabp7, the z-score is reported as inactive: 0.142.
In the case of CCACUGAUGCUUCCUACUUTT against BC011209, the z-score is reported as inactive: 2.21.
In the case of GGAUUUUUACUGGUCAAACTT against AI586015, the z-score is reported as inactive: 0.581.
In the case of GAGCUUCUAAUUCACCCUATT against Abcc6, the z-score is reported as inactive: 2.81.
For GGAUGAUGAAUUCACACACTT against Calr, the z-score was inactive: 0.473.
In the case of GCAGUCAUGGGUUCUUAAGTT against Gng3, the z-score is reported as inactive: 0.466.
For GGAAACGGCAUAGUGCUAUTT against Mrgprb4, the z-score was inactive: 1.19.
In the case of GCAAAUCUACCUCUUCGGGTT against Cdsn, the z-score is reported as inactive: -0.379.
For CCAUUUUUACCUACAUCCATT against Olfr452, the z-score was inactive: 1.81.
For GCAUGACAAGAGCUAGUUUTT against Olfr564, the z-score was inactive: 1.02.
With GCUUUUAGGCCUCCAAAAGTT against Lmnb2 the z-score was inactive: -1.22.
For GGAGGAAGUUGAAAAUGAATT against Myom2, the z-score was inactive: 1.33.
For CCAUUCUGAAAGUUUCAUCTT against Olfr350, the z-score was inactive: 0.434.
For CCUAGUUAGAGUAAUUAGGTT against Mras, the z-score was inactive: 0.127.
For GCGGGUGAAAUACACCAAGTT against Trim28, the z-score was inactive: -2.71.
In the case of GGAAGAAAAGCAGGAAGCUTT against Hmgn3, the z-score is reported as inactive: 0.92.
In the case of GCCCGACAUCAUGAUUGUUTT against Gne, the z-score is reported as inactive: -0.876.
For GCCUCAAAUGCAUACAUACTT against Nr2e1, the z-score was inactive: -1.13.
In the case of CCCAUUACCUGAUCAGUGGTT against AK129302, the z-score is reported as inactive: 0.313.
In the case of GGGAUAUGUUUCUUGUAGGTT against V1rc7, the z-score is reported as inactive: 0.552.
In the case of GGCACAGUUCCUCAGUAUGTT against Hspbap1, the z-score is reported as inactive: -0.944.
In the case of GCAAUGUGAGAAUUUUAACTT against MGC117568, the z-score is reported as inactive: 1.68.
For GGUGAUGCCACUAGUGAAGTT against Scx, the z-score was inactive: -0.595.
With CCCUAACUAAUGAUUCAGATT against Klri1 the z-score was inactive: 1.28.
With “GGCAUCCAGACAAGUGAUGTT against C230075L19Rik” the z-score was inactive: -2.03.
For GAUCCAUUUCACGUUGAUUTT against Gadd45g, the z-score was inactive: 0.582.
In the case of GCUGUUGGUUUCUACUCACTT against Adam21, the z-score is reported as active: 1.43.
In the case of “GGCUAGCACUGUUUUUACCTT against 1700123O20Rik”, the z-score is reported as inactive: 0.373.
In the case of GCAAAUAGUAUUCCUUUGGTT against Akap8, the z-score is reported as inactive: 0.603.
In the case of GCAUGGUAAAAUGCUUAAGTT against Dlst, the z-score is reported as inactive: 2.4.
With “GGGUUUAUUUGGUCAAGAUTT against 2610205H19Rik” the z-score was inactive: 1.91.
With GCGGAUUCAGCUGAUGAUGTT against Sash1 the z-score was inactive: 0.424.
For GGCAUUUUUCUUCUCCAAATT against Clns1a, the z-score was inactive: -0.934.
In the case of GGCCCAGUUUCUGAGGAUCTT against B4galt2, the z-score is reported as inactive: 0.501.
For GCUAGAUAAACUCUCUCAATT against Blr1, the z-score was inactive: 0.176.
With CCACUGAUAACUCGAUUUGTT against Nrp1 the z-score was inactive: -0.511.
For “GGUCACCUUGUGAAGGCAGTT against A430005L14Rik”, the z-score was inactive: 1.28.
With GCAACAUUAUUUCAUCGACTT against Kctd15 the z-score was inactive: 1.02.
For AUGCAAGAGGAACGUAUCATT against Olfr1181, the z-score was inactive: 1.66.
For “GGCAAGAAACACAAAAAGATT against 9630048M01Rik”, the z-score was inactive: 0.165.
With GCAUUCGGCUGAGAAGAUGTT against Foxb2 the z-score was inactive: -1.8.
For GCGAUGGAAACUGAAAUGCTT against Jmjd2b, the z-score was inactive: -0.0594.
In the case of GGAUGUGACUCUUGACCUGTT against Depdc5, the z-score is reported as inactive: 0.317.
In the case of CCUCUUAAUGAAGGAAAGCTT against Npy, the z-score is reported as inactive: 0.554.
With GCCCGUGGUCUAAAUCUAUTT against Igtp the z-score was inactive: 0.596.
For “GGAGCAACUAAUGAAGAAATT against 2810451A06Rik”, the z-score was inactive: -0.796.
With “GGUUCUUGCUGAGAGCAUGTT against D930025H04” the z-score was inactive: 0.166.
In the case of GGCUCUGAUAUUGAUACUATT against Cse1l, the z-score is reported as inactive: -3.03.
With GGCAUCCACACAGAACAAGTT against Zfp467 the z-score was inactive: 0.139.
With GGCCUUCACCAAAAGCAUCTT against Ncf2 the z-score was inactive: 1.25.
In the case of “GGAAUCCUUUCCUAAAUUGTT against 2700022J23Rik”, the z-score is reported as inactive: 1.18.
For “GGAAAGUAAAGUUUUCUCCTT against 2310075A12Rik”, the z-score was inactive: 0.426.
For UGAAAGCAUAAGCAAUACATT against Sr278, the z-score was inactive: -0.182.
For GGAUCCUAAGGUCAUGAUCTT against D1Wsu40e, the z-score was inactive: -0.205.
In the case of UCCAUACAGCAUCCAGUAATT against MGC107671, the z-score is reported as inactive: -2.94.
In the case of GGAAAGUGGAUGUCACCAGTT against Sh3gl2, the z-score is reported as inactive: -1.44.
For “CCUGUGUUAGGAGUUAUUCTT against 1110001C20Rik”, the z-score was inactive: 0.598.
In the case of GGUCAAGGAGCCACAAUUGTT against Rsb30, the z-score is reported as inactive: -2.69.
In the case of CCAUGAAACGGGCCAUUUCTT against Cldn3, the z-score is reported as inactive: -1.68.
For “CCAUGUGGGUAAGUACAGCTT against 4932411N23Rik”, the z-score was inactive: -0.639.
In the case of GGAAGAGGUAGUUGCUAGATT against Hemt1, the z-score is reported as inactive: 0.506.
For GGUCUUUGAUCUUCUACCGTT against Thbs4, the z-score was inactive: -0.391.
For “GCGUGAUUGACAACUGGUUTT against C330003B14Rik”, the z-score was inactive: 3.1.
With GGAACUGAAUGCGGAAUUCTT against Chi3l1 the z-score was inactive: -1.19.
For “CCUUAGGAUAGAAACAAAGTT against 1110056A04Rik”, the z-score was inactive: 0.449.
With “GGAGCACCAUUUCAGGAUATT against 4930463G05Rik” the z-score was inactive: -0.0537.
With GGACCCUUUCUUUGAUAUGTT against Rpe the z-score was inactive: 0.309.
In the case of GUAACCUGAUUUCCAUUCUTT against Olfr178, the z-score is reported as inactive: 0.716.
In the case of GGACAGGAGGAUUACAACCTT against Rhoj, the z-score is reported as inactive: 0.739.
In the case of “CCGGGAGAUUACAAGUAGCTT against E130309B19Rik”, the z-score is reported as inactive: 0.649.
For GGUUUGAACUUCAGCAACUTT against Adam15, the z-score was inactive: -0.891.
With GGAGACAUGGUGAAGAUUUTT against Vav3 the z-score was inactive: -0.305.
